The target of assay [1] is T1, p63γ (UniProt Q9H3D4).
T1 sequence (looked up): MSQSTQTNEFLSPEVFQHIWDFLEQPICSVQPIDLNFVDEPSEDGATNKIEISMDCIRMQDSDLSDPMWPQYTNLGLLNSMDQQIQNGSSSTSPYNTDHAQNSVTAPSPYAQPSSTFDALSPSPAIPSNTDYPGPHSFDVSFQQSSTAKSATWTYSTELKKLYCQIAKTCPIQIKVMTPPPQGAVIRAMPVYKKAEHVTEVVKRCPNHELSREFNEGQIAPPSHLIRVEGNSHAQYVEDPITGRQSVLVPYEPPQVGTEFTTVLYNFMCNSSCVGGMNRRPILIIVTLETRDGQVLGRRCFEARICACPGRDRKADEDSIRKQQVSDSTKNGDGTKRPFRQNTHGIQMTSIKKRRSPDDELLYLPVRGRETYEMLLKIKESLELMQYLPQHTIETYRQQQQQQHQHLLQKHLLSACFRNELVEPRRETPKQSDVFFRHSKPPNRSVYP
The assay can be described thus: in vitro co-immunoprecipitation (FIGS. 12B and 12C).

The target of assay [2] is T1, p63γ. The assay can be described thus: in vitro translated proteins, anti-V5 immunoprecipitation, autoradiography of the 35S-labelled partner.
Assay [3] has as its target T1, p63γ. The assay can be described thus: co-immunoprecipitation from 2 mg cell lysate (FIGS. 13E-F).
The target in assay [4] is T1, p63γ. The assay can be described thus: co-immunoprecipitation from transfected cells (FIGS. 13A-D).
Assay [5] concerns the target T1, p63γ. The assay can be described thus: co-immunoprecipitation from transfected H1299 and Saos-2 cells, western blot; endogenous p63γ with transfected ASPP2 also detected. On the technique in general: A western blot detects proteins with antibodies after separation by electrophoresis.
Assay [6] deals with T1, p63γ. The assay can be described thus: co-immunoprecipitation from transfected H1299 and Saos-2 cells (1 mg lysate), western blot.

Our source for the binding values is patent publication US20040228866A1, “Suppressor genes” (Ludwig Institute for Cancer Research, priority 2000, published 2004).

Results are given in words; binding and its absence hold for the method and conditions named. For part of these data: Binding seen in cells or lysates may run through a third protein. Some entries that bind do so weakly or less than the wild type. For part of these data: Where a sequence is shown, tags or fusion partners need not be part of it.

B1: V5-tagged ASPP2 (in vitro translated) (protein, not shown: small tags and cut ends)
chain: MMPMFLTVYLSNNEQHFTEVPVTPETICRDVVDLCKEPGESDCHLAEVWCGSERPVADNERMFDVLQRFGSQRNEVRFFLRHERPPGRDIVSGPRSQDPSLKRNGVKVPGEYRRKENGVNSPRMDLTLAELQEMASRQQQQIEAQQQLLATKEQRLKFLKQQDQRQQQQVAEQEKLKRLKEIAENQEAKLKKVRALKGHVEQKRLSNGKLVEEIEQMNNLFQQKQRELVLAVSKVEELTRQLEMLKNGRIDSHHDNQSAVAELDRLYKELQLRNKLNQEQNAKLQQQRECLNKRNSEVAVMDKRVNELRDRLWKKKAALQQKENLPVSSDGNLPQQAASAPSRVAAVGPYIQSSTMPRMPSRPELLVKPALPDGSLVIQASEGPMKIQTLPNMRSGAASQTKGSKIHPVGPDWSPSNADLFPSQGSASVPQSTGNALDQVDDGEVPLREKEKKVRPFSMFDAVDQSNAPPSFGTLRKNQSSEDILRDAQVANKNVAKVPPPVPTKPKQINLPYFGQTNQPPSDIKPDGSSQQLSTVVPSMGTKPKPAGQQPRVLLSPSIPSVGQDQTLSPGSKQESPPAAAVRPFTPQPSKDTLLPPFRKPQTVAASSIYSMYTQQQAPGKNFQQAVQSALTKTHTRGPHFSSVYGKPVIAAAQNQQQHPENIYSNSQGKPGSPEPETEPVSSVQENHENERIPRPLSPTKLLPFLSNPYRNQSDADLEALRKKLSNAPRPLKKRSSITEPEGPNGPNIQKLLYQRTTIAAMETISVPSYPSKSASVTASSESPVEIQNPYLHVEPEKEVVSLVPESLSPEDVGNASTENSDMPAPSPGLDYEPEGVPDNSPNLQNNPEEPNPEAPHVLDVYLEEYPPYPPPPYPSGEPEGPGEDSVSMRPPEITGQVSLPPGKRTNLRKTGSERIAHGMRVKFNPLALLLDSSLEGEFDLVQRIIYEVDDPSLPNDEGITALHNAVCAGHTEIVKFLVQFGVNVNAADSDGWTPLHCAASCNNVQVCKFLVESGAAVFAMTYSDMQTAADKCEEMEEGYTQCSQFLYGVQEKMGIMNKGVIYALWDYEPQNDDELPMKEGDCMTIIHREDEDEIEWWWARLNDKEGYVPRNLLGLYPRIKPRQRSLA
B1: the binding entry in assay [1] and in assay [2] was “binds” in each case.

B2: ASPP2 (1-1128) (protein)
chain: MMPMFLTVYLSNNEQHFTEVPVTPETICRDVVDLCKEPGESDCHLAEVWCGSERPVADNERMFDVLQRFGSQRNEVRFFLRHERPPGRDIVSGPRSQDPSLKRNGVKVPGEYRRKENGVNSPRMDLTLAELQEMASRQQQQIEAQQQLLATKEQRLKFLKQQDQRQQQQVAEQEKLKRLKEIAENQEAKLKKVRALKGHVEQKRLSNGKLVEEIEQMNNLFQQKQRELVLAVSKVEELTRQLEMLKNGRIDSHHDNQSAVAELDRLYKELQLRNKLNQEQNAKLQQQRECLNKRNSEVAVMDKRVNELRDRLWKKKAALQQKENLPVSSDGNLPQQAASAPSRVAAVGPYIQSSTMPRMPSRPELLVKPALPDGSLVIQASEGPMKIQTLPNMRSGAASQTKGSKIHPVGPDWSPSNADLFPSQGSASVPQSTGNALDQVDDGEVPLREKEKKVRPFSMFDAVDQSNAPPSFGTLRKNQSSEDILRDAQVANKNVAKVPPPVPTKPKQINLPYFGQTNQPPSDIKPDGSSQQLSTVVPSMGTKPKPAGQQPRVLLSPSIPSVGQDQTLSPGSKQESPPAAAVRPFTPQPSKDTLLPPFRKPQTVAASSIYSMYTQQQAPGKNFQQAVQSALTKTHTRGPHFSSVYGKPVIAAAQNQQQHPENIYSNSQGKPGSPEPETEPVSSVQENHENERIPRPLSPTKLLPFLSNPYRNQSDADLEALRKKLSNAPRPLKKRSSITEPEGPNGPNIQKLLYQRTTIAAMETISVPSYPSKSASVTASSESPVEIQNPYLHVEPEKEVVSLVPESLSPEDVGNASTENSDMPAPSPGLDYEPEGVPDNSPNLQNNPEEPNPEAPHVLDVYLEEYPPYPPPPYPSGEPEGPGEDSVSMRPPEITGQVSLPPGKRTNLRKTGSERIAHGMRVKFNPLALLLDSSLEGEFDLVQRIIYEVDDPSLPNDEGITALHNAVCAGHTEIVKFLVQFGVNVNAADSDGWTPLHCAASCNNVQVCKFLVESGAAVFAMTYSDMQTAADKCEEMEEGYTQCSQFLYGVQEKMGIMNKGVIYALWDYEPQNDDELPMKEGDCMTIIHREDEDEIEWWWARLNDKEGYVPRNLLGLYPRIKPRQRSLA
B2: the binding entry in assay [3], in assay [4] and in assay [5] was “binds” in each case.

B3: V5-tagged ASPP1 (in vitro translated) (protein, not shown: small tags and cut ends)
chain: MMPMILTVFLSNNEQILTEVPITPETTCRDVVEFCKEPGEGSCHLAEVWRGNERPIPFDHMMYEHLQIWGPRREEVKFFLRHEDSPTENSEQGGRQTQEQRTQRNVINVPGDKRTEYGVGNPRVELTLSELQDMAARQQQQIENQQQMLVAKEQRLHFLKQQERRQQQSISENEKLQKLKERVEAQENKLKKIRAMRGQVDYSKIMNGNLSAEIERFSAMFQEKKQEVQTAILRVDQLSQQLEDLKKGKLNGFQSYNGKLTGPAAVELKRLYQELQIRNQLNQEQNSKLQQQKELLNKRNMEVAMMDKRISELRERLYGKKIQLNRVNGTSSPQSPLSTSGRVAAVGPYIQVPSAGSFPVLGDPIKPQSLSIASNAAHGRSKSANDGNWPTLKQNSSSSVKPVQVAGADWKDPSVEGSVKQGTVSSQPVPFSALGPTEKPGIEIGKVPPPIPGVGKQLPPSYGTYPSPTPLGPGSTSSLERRKEGSLPRPSAGLPSRQRPTLLPATGSTPQPGSSQQIQQRISVPPSPTYPPAGPPAFPAGDSKPELPLTVAIRPFLADKGSRPQSPRKGPQTVNSSSIYSMYLQQATPPKNYQPAAHSALNKSVKAVYGKPVLPSGSTSPSPLPFLHGSLSTGTPQPQPPSESTEKEPEQDGPAAPADGSTVESLPRPLSPTKLTPIVHSPLRYQSDADLEALRRKLANAPRPLKKRSSITEPEGPGGPNIQKLLYQRFNTLAGGMEGTPFYQPSPSQDFMGTLADVDNGNTNANGNLEELPPAQPTAPLPAEPAPSSDANDNELPSPEPEELICPQTTHQTAEPAEDNNNNVATVPTTEQIPSPVAEAPSPGEEQVPPAPLPPASHPPATSTNKRTNLKKPNSERTGHGLRVRFNPLALLLDASLEGEFDLVQRIIYEVEDPSKPNDEGITPLHNAVCAGHHHIVKFLLDFGVNVNAADSDGWTPLHCAASCNSVHLCKQLVESGAAIFASTISDIETAADKCEEMEEGYIQCSQFLYGVQEKLGVMNKGVAYALWDYEAQNSDELSFHEGDALTILRRKDESETEWWWARLGDREGYVPKNLLGLYPRIKPRQRTLA
In the case of B3, the binding result in assay [1] and in assay [2] was “binds” throughout.

B4: Apoptosis Stimulating Protein 1 (ASPP1) (protein)
chain: MMPMILTVFLSNNEQILTEVPITPETTCRDVVEFCKEPGEGSCHLAEVWRGNERPIPFDHMMYEHLQIWGPRREEVKFFLRHEDSPTENSEQGGRQTQEQRTQRNVINVPGDKRTEYGVGNPRVELTLSELQDMAARQQQQIENQQQMLVAKEQRLHFLKQQERRQQQSISENEKLQKLKERVEAQENKLKKIRAMRGQVDYSKIMNGNLSAEIERFSAMFQEKKQEVQTAILRVDQLSQQLEDLKKGKLNGFQSYNGKLTGPAAVELKRLYQELQIRNQLNQEQNSKLQQQKELLNKRNMEVAMMDKRISELRERLYGKKIQLNRVNGTSSPQSPLSTSGRVAAVGPYIQVPSAGSFPVLGDPIKPQSLSIASNAAHGRSKSANDGNWPTLKQNSSSSVKPVQVAGADWKDPSVEGSVKQGTVSSQPVPFSALGPTEKPGIEIGKVPPPIPGVGKQLPPSYGTYPSPTPLGPGSTSSLERRKEGSLPRPSAGLPSRQRPTLLPATGSTPQPGSSQQIQQRISVPPSPTYPPAGPPAFPAGDSKPELPLTVAIRPFLADKGSRPQSPRKGPQTVNSSSIYSMYLQQATPPKNYQPAAHSALNKSVKAVYGKPVLPSGSTSPSPLPFLHGSLSTGTPQPQPPSESTEKEPEQDGPAAPADGSTVESLPRPLSPTKLTPIVHSPLRYQSDADLEALRRKLANAPRPLKKRSSITEPEGPGGPNIQKLLYQRFNTLAGGMEGTPFYQPSPSQDFMGTLADVDNGNTNANGNLEELPPAQPTAPLPAEPAPSSDANDNELPSPEPEELICPQTTHQTAEPAEDNNNNVATVPTTEQIPSPVAEAPSPGEEQVPPAPLPPASHPPATSTNKRTNLKKPNSERTGHGLRVRFNPLALLLDASLEGEFDLVQRIIYEVEDPSKPNDEGITPLHNAVCAGHHHIVKFLLDFGVNVNAADSDGWTPLHCAASCNSVHLCKQLVESGAAIFASTISDIETAADKCEEMEEGYIQCSQFLYGVQEKLGVMNKGVAYALWDYEAQNSDELSFHEGDALTILRRKDESETEWWWARLGDREGYVPKNLLGLYPRIKPRQRTLA
Consider B4, for which the binding result in assay [4] and in assay [6] was “binds” throughout.
